Assay results reported in publication PMC3498158.
Results are given in words; binding and its absence hold for the method and conditions named. Some entries that bind do so weakly or less than the wild type. Tags and fused reporters may be left off the sequences shown.

Target: T1, USP (ultraspiracle), endogenous in aff3 cells (Bombyx mori (endogenous in aff3)) (UniProt P49700)
T1 sequence: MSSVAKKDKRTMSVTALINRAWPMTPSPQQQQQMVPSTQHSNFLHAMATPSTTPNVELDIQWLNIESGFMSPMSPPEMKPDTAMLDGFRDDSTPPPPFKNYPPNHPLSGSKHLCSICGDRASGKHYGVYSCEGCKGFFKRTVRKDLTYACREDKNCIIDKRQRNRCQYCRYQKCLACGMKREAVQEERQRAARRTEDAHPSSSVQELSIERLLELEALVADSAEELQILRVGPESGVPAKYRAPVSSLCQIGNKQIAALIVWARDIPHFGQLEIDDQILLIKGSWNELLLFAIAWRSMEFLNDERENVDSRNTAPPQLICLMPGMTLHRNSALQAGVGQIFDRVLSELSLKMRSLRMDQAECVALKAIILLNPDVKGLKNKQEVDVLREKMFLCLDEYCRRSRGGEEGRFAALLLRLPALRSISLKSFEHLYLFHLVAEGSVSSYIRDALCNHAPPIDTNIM
Assay: native gel or EMSA; super shift assay: whole-cell extracts of aff3 cells overexpressing V5-tagged EcR-A or EcR-B1 incubated with 32P probes (BmEcRB1-E1, BmE75A-EcRE, BHR3B-EcRE) 20 min on ice, then anti-V5 and anti-USP antibodies together 1.5 h on ice; 4% polyacrylamide gel; both proteins found in one protein-DNA complex (super-shift2)

B1: BmEcR-B1 tagged with a V5 antigen (B1^T) (receptor, UniProt P49881 1-606)
chain: MRVENVDNVSFALNGRADEWCMSVETRLDSLVREKSEVKAYVGGCPSVITDAGAYDALFDMRRRWSNNGGFPLRMLEESSSEVTSSSALGLPPAMVMSPESLASPEYRALELWSYDDGITYNTAQSLLGACNMQQQQLQPQQPHPAPPTLPTMPLPMPPTTPKSENESMSSGREELSPASSINGCSADADARRQKKGPAPRQQEELCLVCGDRASGYHYNALTCEGCKGFFRRSVTKNAVYICKFGHACEMDMYMRRKCQECRLKKCLAVGMRPECVIQEPSKNKDRQRQKKDKGILLPVSTTTVEDHMPPIMQCDPPPPEAARIHEVVPRYLSEKLMEQNRQKNIPPLSANQKSLIARLVWYQEGYEQPSDEDLKRVTQTWQSDEEDEESDLPFRQITEMTILTVQLIVEFAKGLPGFSKISQSDQITLLKASSSEVMMLRVARRYDAASDSVLFANNKAYTRDNYRQGGMAYVIEDLLHFCRCMFAMGMDNVHFALLTAIVIFSDRPGLEQPSLVEEIQRYYLNTLRIYIINQNSASSRCAVIYGRILSVLTELRTLGTQNSNMCISLKLKNRKLPPFLEEIWDVAEVATTHPTVLPPTNPVVL
With B1 as the binder, how does the binding read?
The binding was “binds”.
